Not every detail of the peptide structures is certain; ends, links or a residue may be inferred. *1 amine or outer side, *2 acyl side, *3 side chain or, on linkers, in order; H or OH if unused. Where a SMILES comes first, the peptide text is derived from it. Bridges are numbered along the chain shown (N, C = ends). [ ]: non-standard residue; d: D form. The star is where a group is joined. Propargyl(OCH2CH2)4CO = C#CCOCCOCCOCCOCCC(=O)*; X1 = CCCCCC[C@@H](O)[C@H](N[*:1])C(=O)[*:2]; dCha = N[C@H](CC1CCCCC1)C(=O)O; Dab = NCC[C@H](N)C(=O)O; azaGly = NNC(=O)O
Assays:
[1] = tested on: Ec COL^R LPS: colistin-resistant (MCR-1) strain (AR0349); assay: Lethal mouse endotoxemia model (LD95 purified LPS IP); type: in vivo, C57BL/6J mice; conditions: (D) Endotoxemia (Ec COL^R LPS); 5 mg/kg IV, single, -1 hr; survival after three days
Method: Studies (B)-(D) shown in Table 22 summarizes the efficacy of compounds in lethal models of endotoxemia. In these models 6 week old C57I/6J immune competent mice (Jackson Laboratory) were challenged IP with purified lipopolysaccharide (LPS) in PBS at an LD95. For all studies, LPS was obtained from Sigma (catalog numbers in the table footnote) or were purified using a kit obtained from iNtRON Biotechnology Inc. (cat #17141). One hour prior to LPS challenge mice were dosed with test articles as indicated (Table 22). The results of these studies indicate that compounds are able to neutralize the lethal effects of LPS in a severe endotoxemia/sepsis model.
End point was survival after 3 days. Ec: E. coli 0111:B34, Sigma cat #L4130; Ab: Acinetobacter baumannii 5075; Kp: Klebsiella pneumonia 10, Sigma cat #L4268; Ng: Neisseria gonorrhoeae 19424; Ec 026:B86, Sigma cat #L2762; Pm: Proteus mirabilis, Sigma cat #SMB00704; Sm: Serratia marcescens, Sigma cat #L6016; Pa: Pseudomonas aeruginosa 10. […] Purified LPS used for all endotoxemia studies and if not denoted by a Sigma catalog number the LPS was purified in-house using an iNtRON #17141 purification kit. *Delayed death, at the time Fc only animals reached 100% mortality all Conjugate 41 mice were still alive.

[2] = tested on: LPS from E. coli O111:B4; assay: LPS binding/neutralization by Limulus Amebocyte Lysate (LAL) assay; type: biochemical; conditions: LPS 1-10,000 ng/mL, test article 0.25-10 μM; sum of AUCs relative to maximal AUC (Table 15)
Method: The LAL assay (Charles River) was used to determine the binding affinity of test articles to LPS.
For the assay, 25 μL purified LPS from E. coli O111:[…] (Sigma) at doses ranging from 1-10,000 ng/mL were incubated with 25 μL of test article at concentrations ranging from […]. After 5 min incubation at 37° C., 50 μL of LAL reagent, which reacts with lipid A portion from LPS, was added to corresponding wells. After 15 min, absorbance at 405 nm was read on EnSpire plate reader (Perkin Elmer). The % LPS neutralization is calculated relative to a PBS control (background) and LPS control at each concentration (positive control).
LPS neutralization=(1−(absorbance test article−PBS with LAL reagent)/(absorbance no test article−PBS with LAL reagent))×100
To obtain a single value of LPS neutralization for each test article, the area under the curve (AUC) for dose-response of test articles from […] for each LPS concentration was calculated using Prism 7 software. The % LPS neutralization is the sum of the AUCs for each LPS concentration determined relative to the maximal AUC achievable×100.
For the assay, 25 μL purified LPS from E. coli O111:B4 (Sigma) at doses ranging from 1-10,000 ng/mL were incubated with 25 μL of test article at concentrations ranging from 0.25-10 μM. […] After 15 min, absorbance at 405 nm was read on EnSpire plate reader (Perkin Elmer). […]

[3] = tested on: A. baumannii AB5075; assay: Lethal A. baumannii lung infection (mouse pneumonia) model, survival; type: in vivo, Acinetobacter baumannii; conditions: mouse pneumonia model vs. AB5075; 5 mg/kg, twice intravenously, t=+1 h and +4 h; n=5

C#CCOCCOCCOCCOCCC(=O)N[C@@H](CCN)C(=O)N[C@H](C(=O)NNC(=O)N[C@H]1CCNC(=O)[C@H]([C@@H](C)O)NC(=O)[C@H](CCN)NC(=O)[C@H](CCN)NC(=O)[C@H](CC(C)C)NC(=O)[C@@H](CC2CCCCC2)NC(=O)[C@H](CCN)NC1=O)[C@H](O)CCCCCC [Int-115] ({Propargyl(OCH2CH2)4CO}-[Dab][X1][azaGly][Dab][Dab][dCha]L[Dab][Dab]T; lactam 4-C)
% survival [1]: 100%
% LPS neutralization [2]: 38.2%
protection (survival over 5 days), FIG. 119 [3]: delay death of all mice until day 4 post-infection

From patent US20230165970A1, “COMPOSITIONS AND METHODS FOR THE TREATMENT OF BACTERIAL INFECTIONS” (priority 2017, published 2023)
